In patent US20230060388A1:
Results are given in words; binding and its absence hold for the method and conditions named. Some results given as binding are weak or reduced against the parent protein; the word gives no strength. For some assays here: Tags and fused reporters may be left off the sequences shown. Blank lines part the entries; values can stand above or below the binder they belong to.

Amino acid sequences for entries named in this document (tags omitted). A change or cut given only in a name is not applied to a line headed by its entry. Chains listed by the source or under a name are the forms on record and can include a tag or linker. Residues count along the entry.
UniProt P08637, residues 17-208: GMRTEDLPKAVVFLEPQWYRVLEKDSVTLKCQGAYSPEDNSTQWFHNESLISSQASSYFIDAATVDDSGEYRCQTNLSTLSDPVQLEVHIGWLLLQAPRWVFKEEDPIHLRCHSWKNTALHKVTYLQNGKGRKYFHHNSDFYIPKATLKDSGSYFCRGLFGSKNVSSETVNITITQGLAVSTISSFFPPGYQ
UniProt Q15116: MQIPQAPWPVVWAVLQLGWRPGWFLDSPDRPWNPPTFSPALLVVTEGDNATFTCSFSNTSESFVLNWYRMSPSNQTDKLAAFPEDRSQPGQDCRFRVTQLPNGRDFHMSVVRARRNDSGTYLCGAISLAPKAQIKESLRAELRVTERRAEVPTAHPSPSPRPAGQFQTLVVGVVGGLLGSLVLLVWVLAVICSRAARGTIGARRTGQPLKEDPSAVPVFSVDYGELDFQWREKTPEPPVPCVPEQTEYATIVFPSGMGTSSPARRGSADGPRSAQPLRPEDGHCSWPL
human PD1 expressed on transfected Jurkat cells: residues 25-288 of Q15116
his-tagged recombinant human PD1 ECD: residues 25-170 of Q15116

Tests used:
[1] = target: recombinant ECD of human FcγRIIIA (human) (UniProt P08637); assay: Octet, FcγR ECD on sensor, 5 concentrations
[2] = target: recombinant ECD of human FcγRIIIA (human) (UniProt P08637); assay: Octet (ForteBio), receptor ECD loaded on the sensor, antibody at 5 concentrations (not given) [h-FcγRIIIA binding]
[3] = target: recombinant ECD of human FcγRIIIA (human) (UniProt P08637); assay: Octet, recombinant FcγR ECD
[4] = target: his-tagged recombinant human PD1 ECD (human) (UniProt Q15116); assay: Octet, antibody on sensor
[5] = target: human PD1 expressed on transfected Jurkat cells (human) (UniProt Q15116); assay: flow cytometry, h-PD1 Jurkat cells
[6] = target: his-tagged recombinant human PD1 ECD (human) (UniProt Q15116); assay: Octet, antibody loaded on the sensor, his-tagged h-PD1 ECD injected first, his-tagged h-TIGIT ECD second; concentrations not given
[7] = target: human PD1 expressed on transfected Jurkat cells (human) (UniProt Q15116); assay: flow cytometry (whole cell binding) on h-PD1 transfected Jurkat cells, anti-human IgG Alexa Fluor 488
[8] = target: T1, recombinant human TIGIT extracellular domain (ECD) (human) (UniProt Q495A1); assay: ELISA, VHH supernatant on h-TIGIT ECD coated plates
T1 sequence: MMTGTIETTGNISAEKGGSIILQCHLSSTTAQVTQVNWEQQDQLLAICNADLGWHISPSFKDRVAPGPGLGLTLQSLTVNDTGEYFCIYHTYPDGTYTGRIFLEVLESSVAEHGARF

[9] = target: human TIGIT expressed on cells (stably transfected Jurkat cells) (human) (UniProt Q495A1); assay: flow cytometry, h-TIGIT Jurkat cells
[10] = target: human TIGIT expressed on cells (stably transfected Jurkat cells) (human) (UniProt Q495A1); assay: flow cytometry on h-TIGIT transfected Jurkat cells, anti-human IgG Fc Alexa Fluor 488
[11] = target: human TIGIT expressed on cells (stably transfected Jurkat cells) (human) (UniProt Q495A1); assay: whole cell binding to h-TIGIT stable cells, EC50 plotted against the blocking ELISA IC50
[12] = target: T1, recombinant human TIGIT extracellular domain (ECD) (human); assay: ELISA, VHH supernatant
[13] = target: T1, recombinant human TIGIT extracellular domain (ECD) (human); assay: PVR blocking ELISA (blocked ligand: PVR), IC50 plotted against the whole cell binding EC50

binding [4]: binds | binding [5]: binds | binding [6]: binds | binding [7]: binds
B2: parental anti-PD1 monoclonal antibody (antibody, human IgG4 S228P, kappa, V domains shown)
VH: QVQLVESGGGLVKPGGSLRLSCAASGFTFSNYGMSWIRQAPGKGLEWVSTISGGGSNIYYADSVKGRFTISRDNAKNSLYLQMNSLRAEDTAVYYCVSYYYGIDFWGQGTSVTVSS
VL: DIQMTQSPSSLSASVGDRVTITCKASQDVTTAVAWYQQKPGKAPKLLIYWASTRHTGVPSRFSGSGSGTDFTLTISSLQPEDFATYYCQQHYTIPWTFGGGTKLEIKR

binding [8]: binds
B3: 10H5 VHH (VHH)
VHH: GGGLVQAGGSLRLACTASDPPFANYETTFKSMAMGWVRHIPGKERELVAATNYNGGRTWYSNSAKARSTISRDNAKNTVYLQMSSLKPEDTAVYYCAAKATEGTTFPSRTYEFWGQGIQVTVSS

binding [8]: binds
B6: 4D5 VHH (VHH)
VHH: VDSGGGAVKAGDSLRLVCSAPGRTHGRAFNEYAMAWFRQGPGKERESVAAISSDGRFTYYAASVKGRFTISKDNAKSAAFLQMNSLKPEDTAVYYCAARDSGSGYYSRAQWYDYWGQGTQVTVSS

More lines, now with the values behind:

B1: 2A3-LT-Fc VLPLL (Fc mutations L235V, F243L, R292P, Y300L, P396L) (Fc fusion)
chain: QVQLVESGGGVVQPGRSLRLSCAASGGSFSSYPMGWFRQAPGKERESVAAISSDLRFTYYADSVKGRFTISRDNSKNTLYLQMNSLRAEDTAVYYCAARTSGVGYYSRAQWYDYWGQGTLVTVSSEPKSCDKTHTCPPCPAPELVGGPSVFLLPPKPKDTLMISRTPEVTCVVVDVSHEDPEVKFNWYVDGVEVHNAKTKPPEEQYNSTLRVVSVLTVLHQDWLNGKEYKCKVSNKALPAPIEKTISKAKGQPREPQVYTLPPSREEMTKNQVSLTCLVKGFYPSDIAVEWESNGQPENNYKTTPLVLDSDGSFFLYSKLTVDKSRWQQGNVFSCSVMHEALHNHYTQKSLSLSPGK
binding [1]: binds | binding [2]: binds | binding [3]: binds

B4: 3F10 bivalent VHH antibody (Fc fusion, not shown: small tags and cut ends)
chain: QVQLVESGGGLVQAGGSLRLSCASSEHTFSNFPMGWFRQAPGKERNVVAAIDSSGRLTYYADSVKGRFTISKDNAKSTVYLQMNSLKSEDTARYYCAARTGGVGYYSRSSFYNYWGQGTLVTVSS
binding [9]: binds | binding [10]: binds

B5: 1G1-1C12 VHH (VHH)
VHH: QVQLVESGGGVVQPGRSLRLSCAASGPSFSSYPMGWFRQAPGKERESVAAISSDLRFTYYADSVKGRFTISRDNSKNTLYLQMNSLRAEDTAVYYCAARDSGSGYYSRKQWYDYWGQGTLVTVSS
binding [11]: binds | binding [12]: binds | binding [13]: binds
